These are yes or no findings as the source states them, for the method shown. Binding seen in cells or lysates may run through a third protein. Some results given as binding are weak or reduced against the parent protein; the word gives no strength.
Biological target: IGF1R (insulin-like growth factor 1 receptor), endogenous in glioma cells (human) (UniProt P08069)
Assay: co-immunoprecipitation: anti-PIK3R3 IP from glioma cell lysates, western blot with anti-IGF1R beta antibody

The chains behind the UniProt entries cited, without tags or fusion partners. Where a name states a change or a piece, a line headed by the entry shows the natural chain unless it says otherwise. Residues count along the entry.
UniProt P08069, residues 31-1367: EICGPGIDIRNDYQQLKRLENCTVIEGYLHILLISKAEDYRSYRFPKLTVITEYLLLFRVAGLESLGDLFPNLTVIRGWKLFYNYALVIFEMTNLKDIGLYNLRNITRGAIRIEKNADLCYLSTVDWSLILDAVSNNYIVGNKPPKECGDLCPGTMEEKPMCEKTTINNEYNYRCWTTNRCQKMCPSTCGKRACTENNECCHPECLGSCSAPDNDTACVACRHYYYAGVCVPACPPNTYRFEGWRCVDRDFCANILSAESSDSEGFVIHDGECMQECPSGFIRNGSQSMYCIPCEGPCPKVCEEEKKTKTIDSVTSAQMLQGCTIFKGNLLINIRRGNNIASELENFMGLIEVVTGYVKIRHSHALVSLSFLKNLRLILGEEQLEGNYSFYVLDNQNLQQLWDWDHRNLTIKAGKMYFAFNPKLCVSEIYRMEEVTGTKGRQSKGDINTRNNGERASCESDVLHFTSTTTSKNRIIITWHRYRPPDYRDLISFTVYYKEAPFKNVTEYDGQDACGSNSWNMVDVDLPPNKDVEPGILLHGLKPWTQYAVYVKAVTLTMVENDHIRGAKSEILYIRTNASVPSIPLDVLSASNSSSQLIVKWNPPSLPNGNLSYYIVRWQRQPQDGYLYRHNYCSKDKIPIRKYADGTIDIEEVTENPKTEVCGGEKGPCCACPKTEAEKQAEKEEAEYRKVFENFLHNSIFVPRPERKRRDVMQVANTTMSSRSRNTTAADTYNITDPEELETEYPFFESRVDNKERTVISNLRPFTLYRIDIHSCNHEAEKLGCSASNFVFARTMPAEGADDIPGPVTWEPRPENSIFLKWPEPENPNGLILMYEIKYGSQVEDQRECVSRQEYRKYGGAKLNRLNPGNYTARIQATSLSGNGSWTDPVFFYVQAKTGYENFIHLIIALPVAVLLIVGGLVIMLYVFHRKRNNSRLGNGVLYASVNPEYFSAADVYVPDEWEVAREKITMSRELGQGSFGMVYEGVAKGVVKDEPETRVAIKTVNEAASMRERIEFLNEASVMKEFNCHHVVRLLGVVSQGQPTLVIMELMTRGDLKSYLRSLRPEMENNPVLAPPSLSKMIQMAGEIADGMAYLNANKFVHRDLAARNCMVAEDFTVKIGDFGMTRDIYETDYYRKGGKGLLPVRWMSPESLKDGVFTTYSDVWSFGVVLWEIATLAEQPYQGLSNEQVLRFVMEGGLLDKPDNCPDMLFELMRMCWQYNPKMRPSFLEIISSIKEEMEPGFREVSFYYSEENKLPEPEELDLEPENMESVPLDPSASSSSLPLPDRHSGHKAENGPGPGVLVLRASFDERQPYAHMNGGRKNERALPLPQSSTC

- binding: binds
Substance: PIK3R3 polypeptide (regulatory subunit of PI3-kinase), endogenous in glioma cells (from UniProt Q92569 1-461)
